Reference: publication PMC5824958
Results are given in words; binding and its absence hold for the method and conditions named. In cells and extracts the contact can be indirect. These calls come from enrichment with a bait or labelling near it, and not all partners need be listed.

T1: BRI2 (integral membrane protein 2B) (rat (endogenous in brain)) (UniProt Q5XIE8)
T1 sequence: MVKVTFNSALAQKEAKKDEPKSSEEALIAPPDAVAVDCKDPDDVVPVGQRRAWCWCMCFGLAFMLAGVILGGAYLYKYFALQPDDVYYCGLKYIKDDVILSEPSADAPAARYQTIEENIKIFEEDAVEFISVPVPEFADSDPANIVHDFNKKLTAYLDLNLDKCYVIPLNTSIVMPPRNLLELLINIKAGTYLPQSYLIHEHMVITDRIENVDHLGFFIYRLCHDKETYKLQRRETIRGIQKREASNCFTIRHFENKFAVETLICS

B1: Secretory carrier-associated membrane protein 5 (protein, UniProt Q9JKE3 1-235)
chain: MAEKVNNFPPLPKFIPLKPCFYQDFEADIPPQHLSLTKRLYYLWMLNSVTLAVNLVGCLAWLIGGGGATNFGLAFLWLILFTPCSYVCWFRPIYKAFKTDSSFSFMAFFFTFMAQLVISIIQAVGIPGWGVCGWIATISFFGTNIGSAVVMLIPTVMFTVVAVFSFIALSMVHKFYRGSGGSFSKAQEEWTTGAWKNPHVQQAAQNAAMGAAQGAMNQPQTQYSTTPNYTYSNEM
B2: Sodium- and chloride-dependent GABA transporter 3 (protein, UniProt P31647 1-627)
chain: MTAEQALPLGNGKAAEEARGSEALGGGGGGAAGTREARDKAVHERGHWNNKVEFVLSVAGEIIGLGNVWRFPYLCYKNGGGAFLIPYVVFFICCGIPVFFLETALGQFTSEGGITCWRRVCPLFEGIGYATQVIEAHLNVYYIIILAWAIFYLSNCFTTELPWATCGHEWNTEKCVEFQKLNFSNYSHVSLQNATSPVMEFWERRVLAISDGIEHIGNLRWELALCLLAAWTICYFCIWKGTKSTGKVVYVTATFPYIMLLILLIRGVTLPGASEGIKFYLYPDLSRLSDPQVWVDAGTQIFFSYAICLGCLTALGSYNNYNNNCYRDCIMLCCLNSGTSFVAGFAIFSVLGFMAYEQGVPIAEVAESGPGLAFIAYPKAVTMMPLSPLWATLFFMMLIFLGLDSQFVCVESLVTAVVDMYPKVFRRGYRRELLILALSIVSYFLGLVMLTEGGMYIFQLFDSYAASGMCLLFVAIFECVCIGWVYGSNRFYDNIEDMIGYRPLSLIKWCWKVVTPGICAGIFIFFLVKYKPLKYNNVYTYPAWGYGIGWLMALSSMLCIPLWIFIKLWKTEGTLPEKLQKLTVPSADLKMRGKLGASPRMVTVNDCEAKVKGDGTISAITEKETHF
B3: Brain acid soluble protein 1 (protein, UniProt Q05175 1-220)
chain: MGSKLSKKKKGYNVNDEKAKDKDKKAEGAGTEEEGTQKESEPQAAADATEVKESAEEKPKDAADGEAKAEEKEADKAAAKEEAPKAEPEKSEGAAEEQPEPAPAPEQEAAAPGPAAGGEAPKAGEASAESTGAADGAPQEEGEAKKTEAPAAGPEAKSDAAPAASDSKPSTEPAPSSKETPAASEAPSSAAKAPAPAAPAAEPQAEAPVASSEQSVAVKE
B4: SRC kinase signaling inhibitor 1 (protein, UniProt Q9QXY2 1-1197)
chain: MQPWQCLRRFALAWWERTAEGRARSPREEVGPRDPGGRGEPDPERSSPPMLSADDAEYPREYRTLGGGGSGGSGGRRFSNVGLVHTSERRHTVIAAQSLEALSGLQKADADRKRDAFMDHLKSKYPQHALALRGQQDRMREQQPNYWSFKTRSSRHTQGAQPGLADQAAKLSYASAESLETMSEAELPLGFSRMNRFRQSLPLSRSASQTKLRSPGVLFLQFGEETRRVHITHEVSSLDTLHALIAHMFPQKLTMGMLKSPNTAILIKDEARNVFYELEDVRDIQDRSIIKIYRKEPLYAAFPGSHLTNGDLRREMVYASRESSPTRRLNNLSPASHLASSSPPPGLPSGLPSGLPSGSPSRSRLSYAGGRPPSYAGSPVHHAAERLGGAPTSQGVSPSPSAILERRDVKPDEDLAGKAGGMVLVKGEGLYADPYGLLHEGRLSLAAAAGDPFAYPGAGGLYKRGSVRSLSTYSAAALQSDLEDSLYKAGAGGPLYGDGYGFRLPPSSPQKLADVSAPSGGPPPPHSPYSGPPSRGSPVRQSFRKDSGSSSVFAESPGGKARSTGASTAGAPPSELFPGPGERSLVGFGPPVPAKDTETRERMEAMEKQIASLTGLVQSALLRGSEPETPSEKIEGSNGAATPSAPVCGSGSRSSGATPVSGPPPPAVSSTPAGQPTAVSRLQMQMHLRGLQNSASDLRGQLQQLRKLQLQNQESVRALLKRTEAELSMRVSEAARRQEDPLQRQRTLVEEERLRYLNDEELITQQLNDLEKSVEKIQRDVAHNHRLVPGPELEEKALVLKQLGETLTELKAHFPGLQSKMRVVLRVEVEAVKFLKEEPQRLDGLLKRCRVVTDTLAQIRRQVDEGVWPPPNNLLNQSPKKVAAETDFSKGLDFEIPPPSPPLNLHELSGPAEGTPLTPKSGNPTKGLDAPSKRNMDKAVSVEAAERDWEEKRAALTQYSAKDINRLLEETQAELLKAIPDLDCASKTHPGPTPTPDHKPPKAPHGQKAAPRTEPSGRRGSDELTVPRYRTEKPSKSPPPPPPRRSFPSSHGLTTTRTGEVVVTSKKDSVFIKKAESEELEIQKPQVKLRRAVSEVVRPASTPPIMASAIKDEDDEERIIAELESGGGSVPPMKVVTPGASRLKAAQGPAGSPDKGKHGKQRTEYMRIQAQQQVRVGYQAPRPLEGCTPRLCYMPLS
B5: SH3-containing GRB2-like protein 3-interacting protein 1 (protein, UniProt P0DJJ3 1-827)
chain: MMEGLKKRTRKAFGIRKKEKDTDSTGSPDRDGMQPSPHEPPYHSKAECAREGGKKASKKSNGAPNGFYAEIDWERYNSPELDEEGYSIRPEEPGSTKGKHFYSSSESEEEEESHKKFNIKIKPLQSKDVLKNAATVDELKASIGNIALSPSPVRKSPRRSPGAIKRNLSSEEVARPRRSTPTPELTSKKPLDDTLALAPLFGPPLESAFDEQKTEVLLDQPEIWGSGQPINPSMESPKLARPFPTGTPPPLPPKAVPATPPRTGSPLTVATGNDQAATEAKIEKLPSISDLDSIFGPVLSPKSVAVNTEEKWVHFSDASPEHVTPELTPREKVVTPPAASDIPADSPAPGPPGPPGSAGPPGPPGPRHVPSPLNLEEVQKKVAEQTFIKDDYLETLSSPKECGLGQRATPPPPPPPTYRTVVSSPGPGSGSGTGTASGASSPARPATPLVPCSSTTPPPPPPRPPSRPKLPPGKPGVGDVSRPFSPPIHSSSPPPIAPLARAESTSSISSTNSLSAATTPTVENEQPSLVWFDRGKFYLTFEGSSRGPSPLTMGAQDTLPVAAAFTETVNAYFKGADPSKCIVKITGEMVLSFPAGITRHFANNPSPAALTFRVINSSRLEHVLPNPQLLCCDNTQNDANTKEFWVNMPNLMTHLKKVSEQKPQATYYNVDMLKYQVSAQGIQSTPLNLAVNWRCEPGSTDLRIDYKYNTDAMTTAVALNNVQFLVPIDGGVTKLQAVLPPAVWNAEQQRILWKIPDISQKSENGGVGSLLARFQLSEGPSKPSPLVVQFTSEGSTLSGCDIELVGAGYRFSLIKKRFAAGKYLADN
B6: Serine/threonine-protein kinase DCLK1 (protein, UniProt O08875 1-433)
chain: MLELIEVNGTPGSQLSTPRSGKSPSPSPTSPGSLRKQRISQHGGSSTSLSSTKVCSSMDENDGPGEEESDEGFQIPATITERYKVGRTIGDGNFAVVKECIERSTAREYALKIIKKSKCRGKEHMIQNEVSILRRVKHPNIVLLIEEMDVPTELYLVMELVKGGDLFDAITSTSKYTERDASGMLYNLASAIKYLHSLNIVHRDIKPENLLVYEHQDGSKSLKLGDFGLATIVDGPLYTVCGTPTYVAPEIIAETGYGLKVDIWAAGVITYILLCGFPPFRGSGDDQEVLFDQILMGQVDFPSPYWDNVSDSAKELINMMLLVNVDQRFSAVQVLEHPWVNDDGLPENEHQLSVAGKIKKHFNTGPKPSSTAAGVSVIATTALDKERQVFRRRRNQDVRGRYKAQPAPPELNSESEDYSPSSSETVRSPNSPF
B7: Solute carrier family 12 member 5 (protein, UniProt Q63633 1-1139)
chain: MSRRFTVTSLPPAASAASADPESRRHSVADPRRLPREDVKGDGNPKESSPFINSTDTEKGREYDGRNMALFEEEMDTSPMVSSLLSGLANYTNLPQGSKEHEEAENNEGGKKKPVQAPRMGTFMGVYLPCLQNIFGVILFLRLTWVVGIAGIMESFCMVFICCSCTMLTAISMSAIATNGVVPAGGSYYMISRSLGPEFGGAVGLCFYLGTTFAGAMYILGTIEILLAYLFPAMAIFKAEDASGEAAAMLNNMRVYGTCVLTCMATVVFVGVKYVNKFALVFLGCVILSILAIYAGVIKSAFDPPNFPICLLGNRTLSRHGFDVCAKLAWEGNETVTTRLWGLFCSSRLLNATCDEYFTRNNVTEIQGIPGAASGLIKENLWSSYLTKGVIVERRGMPSVGLADGTPVDMDHPYVFSDMTSYFTLLVGIYFPSVTGIMAGSNRSGDLRDAQKSIPTGTILAIATTSAVYISSVVLFGACIEGVVLRDKFGEAVNGNLVVGTLAWPSPWVIVIGSFFSTCGAGLQSLTGAPRLLQAISRDGIVPFLQVFGHGKANGEPTWALLLTACICEIGILIASLDEVAPILSMFFLMCYMFVNLACAVQTLLRTPNWRPRFRYYHWTLSFLGMSLCLALMFICSWYYALVAMLIAGLIYKYIEYRGAEKEWGDGIRGLSLSAARYALLRLEEGPPHTKNWRPQLLVLVRVDQDQNVVHPQLLSLTSQLKAGKGLTIVGSVLEGTFLDNHPQAQRAEESIRRLMEAEKVKGFCQVVISSNLRDGVSHLIQSGGLGGLQHNTVLVGWPRNWRQKEDHQTWRNFIELVRETTAGHLALLVTKNVSMFPGNPERFSEGSIDVWWIVHDGGMLMLLPFLLRHHKVWRKCKMRIFTVAQMDDNSIQMKKDLTTFLYHLRITAEVEVVEMHESDISAYTYEKTLVMEQRSQILKQMHLTKNEREREIQSITDESRGSIRRKNPANTRLRLNVPEETACDNEEKPEEEVQLIHDQSAPSCPSSSPSPGEEPEGEGETDPEKVHLTWTKDKSAAQKNKGPSPVSSEGIKDFFSMKPEWENLNQSNVRRMHTAVRLNEVIVNKSRDAKLVLLNMPGPPRNRNGDENYMEFLEVLTEQLDRVMLVRGGGREVITIYS
B8: Septin-5 (protein, UniProt Q9JJM9 1-369)
chain: MSTGLRYKSKLATPEDKQDIDKQYVGFATLPNQVHRKSVKKGFDFTLMVAGESGLGKSTLVHSLFLTDLYKDRKLLSAEERINQTVEILKHTVDIEEKGVKLKLTIVDTPGFGDAVNNFECWKPITDYVDQQFEQYFRDESGLNRKNIQDNRVHCCLYFISPFGHGLRPVDVGFMKALHEKVNIVPLIAKADCLVPSEIRKLKDRIREEIDKFGIHVYQFPECDSDEDEDFKQQDRELKESAPFAVIGSNTVVEAKGQRVRGRLYPWGIVEVENQAHCDFVKLRNMLIRTHMHDLKDVTCDVHYENYRAHCIQQMTSKLTQDSRMESPIPILPLPTPDSETEKLIRMKDEELRRMQEMLQKMKQRMQDQ

Biological target: T1, BRI2 (integral membrane protein 2B) (rat (endogenous in brain))
Experiment: affinity purification with mass spectrometry; mouse anti-BRI2 antibody (N-terminal region) on Dynabeads Protein G; pre-cleared rat cerebral cortex, hippocampus and cerebellum lysates (50 mM Tris-HCl pH 8.0, 120 mM NaCl, 4% CHAPS), overnight at 4 °C; co-precipitated proteins identified by nano-HPLC-MS/MS; hits absent from the two mock IPs or with a PSM ratio >= 2.0

Row | binding | Binder
1 | binds | B1
2 | binds | B2
3 | binds | B3
4 | binds | B4
5 | binds | B5
6 | binds | B6
7 | binds | B7
8 | binds | B8
